We go through 30 sequences from PubChem BioAssay AID1347426 (Functional Genomics Laboratory (NCATS/FGL), 2020).

The whole screen tested about 31,000 sequences, of which about 1,400 (4.5%) were called active.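 The calls were made as follows: active = median seed-adjusted z-score above 1 or below -1; inactive = the rest.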 The list shows a part of the results.

This assay can be described thus: Novel Modifiers of Survival Motor Neuron (SMN) Protein: Gene Identification via Genome-wide siRNA Screen.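 Also: luminescence tracks full-length SMN protein made from the SMN2 reporter.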 Particulars: HEK293T SMN2-luciferase reporter, siRNA knockdown, 72 h; actives lie on both sides. A digest of the protocol:
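Genome-wide siRNA screen (10418 genes, 3 siRNAs each, 1 pmol per well) by reverse transfection in HEK293T cells stably carrying an SMN2-luciferase reporter; luminescence after 72 hours, normalized to negative-control siRNA, log10-transformed, MAD-scored.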
As for GAUAUUACGUUGACUGAGATT against C4BPA, the median seed-adjusted z-score was inactive: 0.309.
Take GGAUCAGCCUCAUCACCGATT against G6PC3: the median seed-adjusted z-score was inactive: -0.13.
The figure for UGAGAGCCCUAAUACUAAATT against FIZ1 is inactive: 0.154; for GCAGACCAGUUUAACAUCATT against KLHL10 it is inactive: 0.0708; for CUACUUUUAUCUUGCAUAATT against ZNF264 it is inactive: 0.617.
For the sequence AUGUAUCUACUGUGCGUUUTT against CTGLF1, the median seed-adjusted z-score was inactive: 0.0231.
To GGUUACUUGUAUAUCGCUATT against TIE1 belongs inactive: 0.0629; to CCUACGCGGGUAUCAGAAATT against ROBO1, inactive: -0.096.
To GCAUGACCAUUGGGAUGUUTT against POLR1B belongs inactive: -0.434.
With CGAACUCCGCUUUUUCUUATT against FZD7, the median seed-adjusted z-score was inactive: -0.159.
The figure for ACUGCUCACUUGUCAAUGATT against XRCC6BP1 is inactive: 0.128.
The figure for GCUACACGGAAGUUGCUAATT against DNAH2 is inactive: -0.342.
As to GCCGGUGCAUUUUACGGUUTT against RARS, the median seed-adjusted z-score was inactive: -0.268.
Turning to CCGUGAUCCUCACCAACUATT against REN, the median seed-adjusted z-score is inactive: -0.48.
The figure for CGAACUAGAUGAGACCAAATT against YKT6 is inactive: -0.065; for GGGUCCAACGUAUCUCUUATT against PTPRR it is inactive: 0.502.
As for GCAACAUCACGGAGUCAUATT against UBE2Q1, the median seed-adjusted z-score is inactive: -0.241.
To CCAACUACCCAGACGAUUATT against BMP1 belongs inactive: -0.298; to GGUUGUUAGUGGAUCAUCATT against FBXW11, inactive: 0.206.
The figure for CGAAAGGUCAGAUCAACAATT against SERPINB5 is inactive: -0.0181; for GGCUUGCGAGUGUCACAAATT against DMRTC2 it is inactive: 0.
As to GCAGUGAAGUAGCAUCAAUTT against ISL1, the median seed-adjusted z-score is inactive: 0.138.
To CCUCGUAACUUCACAGGUATT against ULK4 belongs inactive: 0.0834.
On to CCAGUUCUUUAGGAUCUAUTT against GPR141, for which the median seed-adjusted z-score is inactive: -0.777.
Regarding GGAAGACUUUUAAUGUACATT against ZNF578, the median seed-adjusted z-score was inactive: -0.808.
In the case of CCAUUCAGCCUGAUCUAAATT against REPS1, the median seed-adjusted z-score is inactive: 0.185.
The figure for GAUCCGUUGGUGCAUGAAATT against ABHD2 is active: -1.21.
Consider GCAGCAUCUUUUUCCGAAUTT against GJB6, for which the median seed-adjusted z-score is inactive: 0.0376.
Regarding GCAGAUCACUAACAUCGCUTT against POLA1, the median seed-adjusted z-score was inactive: -0.317.
With CGGACAGGCUGAUGACUCATT against SHH, the median seed-adjusted z-score was inactive: -0.517.
